At least one compound was matched to its structure with a doubt left.
What was measured:
AKAP18δ-CFP and RIIα-YFP = experiment: FRET measurement of AKAP18δ-CFP / RIIα-YFP in co-transfected CD8 cells before and after forskolin stimulation; format: cell-based, rabbit; conditions: forskolin 100 μM, FRET at 0, 95 and 600 s
AQP2 = experiment: Translocation of AQP2 in CD8 cells on stimulation; format: cell-based, rabbit; conditions: CD8 cells stably expressing rat AQP2, stimulation with forskolin

C=C[C@@]1(C)CC(=O)[C@]2(O)[C@@]3(C)[C@@H](O)CCC(C)(C)[C@@H]3[C@H](O)[C@H](OC(C)=O)[C@@]2(C)O1 [forskolin]
effect on AKAP-PKA association (FRET) (AKAP18δ-CFP and RIIα-YFP): dissociation of AKAP and PKA | effect on AQP2 localisation (AQP2): translocation of AQP2 into the apical plasma membrane

Reference: patent US7863432B2, “Nucleic acid molecules encoding AKAP18 delta, a splice variant of a protein kinase A anchor protein” (Forschungsverbund Berlin e.V., priority 2002, dated 2011)
